Assay results reported in US6288036A (priority 1993, dated 2001).
Where no end group is shown, it is not given here. [ ]: non-standard residue; d: D form. Oic = O=C(O)[C@@H]1C[C@@H]2CCCC[C@@H]2N1; Hyp = O=C(O)[C@@H]1C[C@@H](O)CN1; 2Thi = N[C@@H](Cc1cccs1)C(=O)O

Assay: Boc solid-phase peptide synthesis; Boc-Arg(Tos)-PAM resin
Conditions: whole synthesis, scale 0.25 g resin

**Q.** With [dR]RP[Hyp]G[2Thi]S[dF][Oic]R as the substance, how does the crude mass read?
**A.** Its crude mass is 176 mg.

**Q.** What about the isolated mass of the same substance?
**A.** Its isolated mass is 53 mg.
